From the supplement of paper PMC12067093, “Discovery and optimisation of a covalent ligand for TRIM25 and its application to targeted protein ubiquitination” (Chemical Science, 2025) come the findings set out here.

Protein sequences, listed by entry. Tags and fused reporters are not part of them. Lines headed by an entry give the natural chain unless they say otherwise; changes in a name come on top.
UniProt Q8IV63: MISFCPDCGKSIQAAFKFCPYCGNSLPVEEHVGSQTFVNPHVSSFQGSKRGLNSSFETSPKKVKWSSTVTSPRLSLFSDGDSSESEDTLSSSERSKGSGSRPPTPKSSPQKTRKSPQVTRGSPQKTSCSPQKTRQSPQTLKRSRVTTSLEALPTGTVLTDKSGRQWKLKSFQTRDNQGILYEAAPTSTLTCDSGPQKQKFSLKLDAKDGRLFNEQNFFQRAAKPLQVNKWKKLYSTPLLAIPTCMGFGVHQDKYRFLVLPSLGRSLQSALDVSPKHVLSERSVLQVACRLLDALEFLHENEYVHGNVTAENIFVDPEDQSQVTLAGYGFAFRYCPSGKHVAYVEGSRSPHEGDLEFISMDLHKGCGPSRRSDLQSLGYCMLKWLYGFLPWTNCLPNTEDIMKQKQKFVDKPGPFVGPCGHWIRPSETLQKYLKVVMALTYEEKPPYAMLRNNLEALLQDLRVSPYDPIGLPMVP
UniProt Q9H270: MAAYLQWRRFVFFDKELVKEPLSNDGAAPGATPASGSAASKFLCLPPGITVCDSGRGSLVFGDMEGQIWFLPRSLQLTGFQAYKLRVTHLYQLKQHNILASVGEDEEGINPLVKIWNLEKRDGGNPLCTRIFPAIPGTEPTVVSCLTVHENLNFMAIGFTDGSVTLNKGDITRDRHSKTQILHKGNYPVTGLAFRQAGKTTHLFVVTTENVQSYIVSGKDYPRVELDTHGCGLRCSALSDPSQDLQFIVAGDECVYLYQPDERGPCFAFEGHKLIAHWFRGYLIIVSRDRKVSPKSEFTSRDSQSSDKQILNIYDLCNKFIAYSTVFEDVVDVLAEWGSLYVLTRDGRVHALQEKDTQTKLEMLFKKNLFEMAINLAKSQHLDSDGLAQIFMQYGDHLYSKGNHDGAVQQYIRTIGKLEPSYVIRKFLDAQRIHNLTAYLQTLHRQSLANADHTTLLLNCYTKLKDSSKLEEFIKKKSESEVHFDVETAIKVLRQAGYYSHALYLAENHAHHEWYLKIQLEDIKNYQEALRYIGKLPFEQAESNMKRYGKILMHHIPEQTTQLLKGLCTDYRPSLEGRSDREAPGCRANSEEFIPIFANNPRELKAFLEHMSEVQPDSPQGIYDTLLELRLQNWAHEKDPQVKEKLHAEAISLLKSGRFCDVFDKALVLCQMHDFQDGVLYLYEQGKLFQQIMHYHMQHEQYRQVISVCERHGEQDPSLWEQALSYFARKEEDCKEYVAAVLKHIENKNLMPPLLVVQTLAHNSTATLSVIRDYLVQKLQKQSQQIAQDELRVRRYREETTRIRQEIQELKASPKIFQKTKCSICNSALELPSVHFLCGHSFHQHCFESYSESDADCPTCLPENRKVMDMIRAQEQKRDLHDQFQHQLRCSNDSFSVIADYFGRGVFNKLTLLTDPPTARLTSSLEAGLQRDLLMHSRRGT
UniProt Q96JC1: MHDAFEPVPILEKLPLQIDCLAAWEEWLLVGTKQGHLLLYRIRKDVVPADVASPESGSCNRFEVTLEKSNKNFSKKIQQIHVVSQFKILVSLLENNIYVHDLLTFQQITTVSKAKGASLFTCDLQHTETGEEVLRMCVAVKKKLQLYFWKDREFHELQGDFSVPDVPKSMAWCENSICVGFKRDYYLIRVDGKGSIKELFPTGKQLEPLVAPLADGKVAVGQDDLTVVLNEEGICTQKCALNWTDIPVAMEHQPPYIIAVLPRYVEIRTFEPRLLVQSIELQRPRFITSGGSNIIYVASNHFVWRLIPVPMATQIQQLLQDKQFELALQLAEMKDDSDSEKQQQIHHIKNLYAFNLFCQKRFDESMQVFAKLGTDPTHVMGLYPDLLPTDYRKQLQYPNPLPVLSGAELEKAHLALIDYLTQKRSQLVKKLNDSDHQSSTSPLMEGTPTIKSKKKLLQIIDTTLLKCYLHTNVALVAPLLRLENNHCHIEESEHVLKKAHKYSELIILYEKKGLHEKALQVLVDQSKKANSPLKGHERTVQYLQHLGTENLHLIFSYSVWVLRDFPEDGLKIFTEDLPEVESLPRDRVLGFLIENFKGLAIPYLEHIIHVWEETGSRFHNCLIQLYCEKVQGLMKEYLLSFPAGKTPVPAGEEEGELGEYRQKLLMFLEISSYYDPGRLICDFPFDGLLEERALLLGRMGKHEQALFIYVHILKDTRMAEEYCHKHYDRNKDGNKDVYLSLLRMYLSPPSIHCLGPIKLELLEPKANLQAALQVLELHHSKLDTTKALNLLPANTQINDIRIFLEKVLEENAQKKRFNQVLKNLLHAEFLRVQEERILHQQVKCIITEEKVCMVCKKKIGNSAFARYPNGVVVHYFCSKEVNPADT
UniProt Q96JH7: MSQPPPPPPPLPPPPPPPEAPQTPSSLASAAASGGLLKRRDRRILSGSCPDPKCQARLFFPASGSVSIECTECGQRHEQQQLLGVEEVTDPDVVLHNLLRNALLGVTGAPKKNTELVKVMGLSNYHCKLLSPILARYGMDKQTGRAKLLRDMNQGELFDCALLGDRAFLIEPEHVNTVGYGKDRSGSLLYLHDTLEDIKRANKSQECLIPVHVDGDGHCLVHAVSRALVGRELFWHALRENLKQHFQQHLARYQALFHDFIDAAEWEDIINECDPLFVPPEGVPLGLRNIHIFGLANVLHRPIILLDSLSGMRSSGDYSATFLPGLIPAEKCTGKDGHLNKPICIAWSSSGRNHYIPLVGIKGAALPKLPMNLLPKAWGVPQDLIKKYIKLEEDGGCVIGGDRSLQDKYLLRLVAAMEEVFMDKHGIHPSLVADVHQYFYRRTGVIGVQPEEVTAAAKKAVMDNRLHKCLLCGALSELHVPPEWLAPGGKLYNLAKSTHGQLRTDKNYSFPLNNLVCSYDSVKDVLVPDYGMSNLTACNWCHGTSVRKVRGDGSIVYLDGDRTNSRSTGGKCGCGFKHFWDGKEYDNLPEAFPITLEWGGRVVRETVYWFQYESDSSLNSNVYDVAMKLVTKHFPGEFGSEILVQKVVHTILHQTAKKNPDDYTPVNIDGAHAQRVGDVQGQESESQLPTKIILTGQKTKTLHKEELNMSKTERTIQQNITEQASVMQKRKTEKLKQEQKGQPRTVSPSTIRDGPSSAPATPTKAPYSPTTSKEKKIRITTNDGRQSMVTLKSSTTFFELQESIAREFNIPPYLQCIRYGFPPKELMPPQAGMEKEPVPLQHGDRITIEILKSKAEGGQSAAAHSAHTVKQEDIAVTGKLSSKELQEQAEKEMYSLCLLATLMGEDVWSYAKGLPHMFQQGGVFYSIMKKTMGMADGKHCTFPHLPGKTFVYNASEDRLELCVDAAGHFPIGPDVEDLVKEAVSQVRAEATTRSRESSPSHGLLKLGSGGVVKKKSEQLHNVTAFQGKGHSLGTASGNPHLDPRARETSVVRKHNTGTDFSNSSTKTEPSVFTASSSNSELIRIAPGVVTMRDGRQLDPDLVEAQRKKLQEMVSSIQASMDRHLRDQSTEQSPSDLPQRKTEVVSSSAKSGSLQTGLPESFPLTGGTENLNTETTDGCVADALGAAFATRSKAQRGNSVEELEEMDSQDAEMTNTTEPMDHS
UniProt P23381: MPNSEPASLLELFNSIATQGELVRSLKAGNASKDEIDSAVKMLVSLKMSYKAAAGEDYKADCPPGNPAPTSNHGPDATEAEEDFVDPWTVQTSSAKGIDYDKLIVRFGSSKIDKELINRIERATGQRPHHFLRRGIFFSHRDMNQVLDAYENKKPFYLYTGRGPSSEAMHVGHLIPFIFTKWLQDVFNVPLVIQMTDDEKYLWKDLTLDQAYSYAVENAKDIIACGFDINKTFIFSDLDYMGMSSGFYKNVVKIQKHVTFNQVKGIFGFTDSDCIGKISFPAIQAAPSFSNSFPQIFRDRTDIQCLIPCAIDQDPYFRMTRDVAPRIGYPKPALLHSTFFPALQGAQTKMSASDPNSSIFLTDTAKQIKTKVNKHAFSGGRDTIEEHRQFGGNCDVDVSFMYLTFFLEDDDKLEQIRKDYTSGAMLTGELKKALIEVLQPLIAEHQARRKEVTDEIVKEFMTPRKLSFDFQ

Compound in this test: Cc1cc(ccc1-c1ccccc1)C(=O)N1CCCN(CC1)C(=O)CCl [compound 10]
The test is described as follows: probe-labelled cysteine peptide fold change vs DMSO (competition) (log2 fold change); higher = less target engagement (more negative = stronger competition). The conditions noted are these: THP-1, incubation time: 4 h.

This is one part of the list.
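Further: competitive profiling in live THP-1 cells: cysteine peptides tagged with an iodoacetamide desthiobiotin (IA-DTB) probe, intensity after compound treatment relative to DMSO-treated cells.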

Regarding “VRK3_Q8IV63_418_FVDKPGPFVGPCGHWIRPSETLQK (UniProt Q8IV63)”, the “probe-labelled cysteine peptide fold change” value (10 µM) is -0.347 and the “probe-labelled cysteine peptide fold change” value (50 µM) was -1.2.

For “VPS11_Q9H270_890_CSNDSFSVIADYFGR (UniProt Q9H270)”, the “probe-labelled cysteine peptide fold change” value is, setting by setting: (10 µM) 0.0291; (50 µM) -0.241.

As to “VPS39_Q96JC1_723_MAEEYCHK (UniProt Q96JC1)”, the “probe-labelled cysteine peptide fold change” value is 0.106 (10 µM) and -0.084 (50 µM).

In the case of “UTRN_P46939_3097_HFNYDVCQSCFFSGR (UniProt P46939)”, the “probe-labelled cysteine peptide fold change” value (10 µM) is 0.0196 and the “probe-labelled cysteine peptide fold change” value (50 µM) was -0.105.

In the case of “VCPIP1_Q96JH7_940_HCTFPHLPGK (UniProt Q96JH7)”, the “probe-labelled cysteine peptide fold change” value was -0.0827 (10 µM) and -0.121 (50 µM).

Regarding “WARS_P23381_225_DIIACGFDINK (UniProt P23381)”, the “probe-labelled cysteine peptide fold change” value is, setting by setting: (10 µM) 0.195; (50 µM) 0.132.
